The source of these data is US9468670B2, “Melatonin-based treatment and diagnosis of bile duct disease” (Texas A&M University System, priority 2011, dated 2016).

Each structure is given as a SMILES string.

The nature of the data set: Liver weight, body weight and liver to body weight ratio in normal and BDL rats. The following applies: normal rats, tap water containing melatonin (20 mg/L) for 1 week. It is filed as in vivo, rat. As for the experimental part: Male 344 Fischer rats (150-175 g) were purchased from Charles River (Wilmington, Mass.) and kept in a temperature-controlled environment (22° C.) with 12:12 hr light/dark cycles. Animals were fed ad libitum and had free access to food and drinking water. […] Before each surgical procedure, animals were anesthetized with sodium pentobarbital (50 mg/kg BW, IP). All animal experiments were performed in accordance with a protocol approved by the Scott and White and Texas A&M Health Science Center Institutional Animal Care and Use Committee and conform to the Guide for the Care and Use of Laboratory Animals published by the US National Institutes of Health (NIH Publication No. 85-23, revised 1996). In all animals, wet liver weight, body weight, wet liver weight to body weight ratio, and an index of liver cell growth including cholangiocytes were measured ([…] et al., 1988).

For the compound `COc1ccc2[nH]cc(CCNC(C)=O)c2c1` [melatonin], the “Liver to body weight ratio” value is reported as 4.5 ± 0.2 and the Liver weight came out at 9.4 ± 0.4 gm.
